Measured values from the supplement of paper PMC10849652.
Some of the results follow.

Protein sequences, listed by entry. Tags and fused reporters are not part of them. Lines headed by an entry give the natural chain unless they say otherwise; changes in a name come on top.
UniProt P20226, whole entry, looked up: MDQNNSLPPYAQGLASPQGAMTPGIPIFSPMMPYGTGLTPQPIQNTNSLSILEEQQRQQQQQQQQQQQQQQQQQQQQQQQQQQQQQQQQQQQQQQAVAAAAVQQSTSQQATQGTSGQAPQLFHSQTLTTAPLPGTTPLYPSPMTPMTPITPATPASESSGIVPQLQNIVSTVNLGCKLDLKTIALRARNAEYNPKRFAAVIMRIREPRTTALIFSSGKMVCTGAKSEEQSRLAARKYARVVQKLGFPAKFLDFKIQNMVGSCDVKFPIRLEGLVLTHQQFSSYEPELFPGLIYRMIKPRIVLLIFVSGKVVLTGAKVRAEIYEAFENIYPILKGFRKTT
UniProt Q96BZ9: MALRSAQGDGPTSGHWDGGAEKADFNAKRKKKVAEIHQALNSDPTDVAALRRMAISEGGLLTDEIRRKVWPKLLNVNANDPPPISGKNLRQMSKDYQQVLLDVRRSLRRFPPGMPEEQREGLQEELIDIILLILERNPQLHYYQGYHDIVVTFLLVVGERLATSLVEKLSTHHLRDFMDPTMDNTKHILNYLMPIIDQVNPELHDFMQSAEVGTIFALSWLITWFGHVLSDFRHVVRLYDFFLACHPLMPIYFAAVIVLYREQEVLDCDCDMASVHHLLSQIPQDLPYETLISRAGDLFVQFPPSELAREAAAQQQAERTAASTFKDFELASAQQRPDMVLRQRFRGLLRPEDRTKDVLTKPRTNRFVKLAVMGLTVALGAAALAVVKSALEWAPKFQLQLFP
UniProt Q13428: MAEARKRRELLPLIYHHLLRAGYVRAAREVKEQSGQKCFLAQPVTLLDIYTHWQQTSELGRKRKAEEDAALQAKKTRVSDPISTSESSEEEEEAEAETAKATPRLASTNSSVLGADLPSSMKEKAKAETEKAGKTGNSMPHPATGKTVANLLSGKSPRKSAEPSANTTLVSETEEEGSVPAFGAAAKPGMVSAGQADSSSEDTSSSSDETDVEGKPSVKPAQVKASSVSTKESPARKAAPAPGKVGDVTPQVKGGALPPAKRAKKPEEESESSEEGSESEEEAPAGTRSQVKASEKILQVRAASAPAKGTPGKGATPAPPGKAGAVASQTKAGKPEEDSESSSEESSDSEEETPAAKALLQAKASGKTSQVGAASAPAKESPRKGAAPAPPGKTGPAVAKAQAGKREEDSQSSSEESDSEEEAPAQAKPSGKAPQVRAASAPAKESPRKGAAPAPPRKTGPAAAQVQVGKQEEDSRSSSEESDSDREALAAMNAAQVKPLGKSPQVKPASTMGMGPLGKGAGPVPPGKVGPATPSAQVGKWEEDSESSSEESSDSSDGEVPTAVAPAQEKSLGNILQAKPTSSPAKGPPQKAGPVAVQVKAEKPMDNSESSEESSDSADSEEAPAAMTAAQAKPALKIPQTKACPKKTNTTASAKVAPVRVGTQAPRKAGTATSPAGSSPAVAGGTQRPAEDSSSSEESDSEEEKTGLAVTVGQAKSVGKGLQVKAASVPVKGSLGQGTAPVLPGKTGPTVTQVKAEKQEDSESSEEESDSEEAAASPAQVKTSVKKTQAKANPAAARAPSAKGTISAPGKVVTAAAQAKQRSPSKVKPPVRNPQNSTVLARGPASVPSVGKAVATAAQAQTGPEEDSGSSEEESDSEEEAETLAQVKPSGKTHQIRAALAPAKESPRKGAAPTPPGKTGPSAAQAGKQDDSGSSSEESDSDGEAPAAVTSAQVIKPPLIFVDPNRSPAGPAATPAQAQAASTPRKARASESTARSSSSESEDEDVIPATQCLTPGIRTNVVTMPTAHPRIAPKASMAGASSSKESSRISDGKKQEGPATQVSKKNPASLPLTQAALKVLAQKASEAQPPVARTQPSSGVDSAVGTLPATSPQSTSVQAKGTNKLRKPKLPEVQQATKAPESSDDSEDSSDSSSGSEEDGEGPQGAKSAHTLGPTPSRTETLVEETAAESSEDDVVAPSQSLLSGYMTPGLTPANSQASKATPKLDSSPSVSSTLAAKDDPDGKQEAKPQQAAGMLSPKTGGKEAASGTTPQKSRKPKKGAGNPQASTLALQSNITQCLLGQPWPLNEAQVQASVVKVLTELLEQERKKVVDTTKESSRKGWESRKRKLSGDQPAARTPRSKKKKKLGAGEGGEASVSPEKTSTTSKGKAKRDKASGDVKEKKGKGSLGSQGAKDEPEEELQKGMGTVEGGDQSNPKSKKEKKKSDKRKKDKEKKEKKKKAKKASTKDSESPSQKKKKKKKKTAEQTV
UniProt Q96EI5: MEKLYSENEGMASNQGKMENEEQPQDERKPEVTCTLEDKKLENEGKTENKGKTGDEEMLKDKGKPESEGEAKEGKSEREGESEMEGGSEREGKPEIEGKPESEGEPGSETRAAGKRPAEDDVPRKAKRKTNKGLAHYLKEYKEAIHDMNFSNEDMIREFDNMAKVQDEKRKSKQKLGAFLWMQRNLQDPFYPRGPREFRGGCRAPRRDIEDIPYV
UniProt P15923: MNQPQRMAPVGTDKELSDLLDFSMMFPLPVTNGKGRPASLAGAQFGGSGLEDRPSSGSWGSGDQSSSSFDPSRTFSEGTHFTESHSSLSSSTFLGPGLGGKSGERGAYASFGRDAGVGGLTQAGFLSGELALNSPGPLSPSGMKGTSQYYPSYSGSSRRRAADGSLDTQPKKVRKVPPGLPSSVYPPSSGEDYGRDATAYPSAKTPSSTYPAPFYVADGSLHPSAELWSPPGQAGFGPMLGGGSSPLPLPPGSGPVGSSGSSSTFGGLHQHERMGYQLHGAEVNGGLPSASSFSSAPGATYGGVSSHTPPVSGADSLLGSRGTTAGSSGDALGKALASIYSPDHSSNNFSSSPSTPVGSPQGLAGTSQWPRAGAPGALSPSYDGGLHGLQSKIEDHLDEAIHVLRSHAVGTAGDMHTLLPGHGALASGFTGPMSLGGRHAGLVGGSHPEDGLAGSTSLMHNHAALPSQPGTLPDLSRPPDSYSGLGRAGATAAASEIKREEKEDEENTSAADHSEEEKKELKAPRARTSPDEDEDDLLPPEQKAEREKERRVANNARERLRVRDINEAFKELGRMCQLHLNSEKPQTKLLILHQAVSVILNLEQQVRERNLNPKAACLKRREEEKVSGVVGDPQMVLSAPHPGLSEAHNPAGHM
UniProt Q01664: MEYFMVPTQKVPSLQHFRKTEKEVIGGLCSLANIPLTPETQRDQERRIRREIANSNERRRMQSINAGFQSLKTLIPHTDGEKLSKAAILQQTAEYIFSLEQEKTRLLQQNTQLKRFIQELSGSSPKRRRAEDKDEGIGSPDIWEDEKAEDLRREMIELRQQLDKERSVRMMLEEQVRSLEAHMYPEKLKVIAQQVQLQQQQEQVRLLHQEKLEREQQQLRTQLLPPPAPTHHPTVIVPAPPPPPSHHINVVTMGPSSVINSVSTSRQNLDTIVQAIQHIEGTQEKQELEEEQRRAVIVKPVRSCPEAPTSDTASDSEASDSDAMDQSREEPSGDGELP
UniProt Q9BQ70: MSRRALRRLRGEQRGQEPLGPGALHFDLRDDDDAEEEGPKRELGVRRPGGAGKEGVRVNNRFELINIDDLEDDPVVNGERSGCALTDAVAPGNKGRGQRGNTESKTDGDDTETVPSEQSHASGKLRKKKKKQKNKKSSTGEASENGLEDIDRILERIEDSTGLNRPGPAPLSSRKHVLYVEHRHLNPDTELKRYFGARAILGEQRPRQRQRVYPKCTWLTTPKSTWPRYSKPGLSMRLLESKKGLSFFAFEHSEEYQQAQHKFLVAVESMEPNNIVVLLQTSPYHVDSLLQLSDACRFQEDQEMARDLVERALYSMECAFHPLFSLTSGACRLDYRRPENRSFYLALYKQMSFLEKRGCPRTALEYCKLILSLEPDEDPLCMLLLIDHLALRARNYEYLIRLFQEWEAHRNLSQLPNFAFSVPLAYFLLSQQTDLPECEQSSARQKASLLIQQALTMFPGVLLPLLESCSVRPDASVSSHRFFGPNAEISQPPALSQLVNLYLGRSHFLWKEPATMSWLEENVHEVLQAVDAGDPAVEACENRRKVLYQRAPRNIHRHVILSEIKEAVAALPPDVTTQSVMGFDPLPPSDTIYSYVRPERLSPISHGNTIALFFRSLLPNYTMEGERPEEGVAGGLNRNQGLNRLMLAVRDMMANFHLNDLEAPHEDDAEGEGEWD
UniProt Q3MII6: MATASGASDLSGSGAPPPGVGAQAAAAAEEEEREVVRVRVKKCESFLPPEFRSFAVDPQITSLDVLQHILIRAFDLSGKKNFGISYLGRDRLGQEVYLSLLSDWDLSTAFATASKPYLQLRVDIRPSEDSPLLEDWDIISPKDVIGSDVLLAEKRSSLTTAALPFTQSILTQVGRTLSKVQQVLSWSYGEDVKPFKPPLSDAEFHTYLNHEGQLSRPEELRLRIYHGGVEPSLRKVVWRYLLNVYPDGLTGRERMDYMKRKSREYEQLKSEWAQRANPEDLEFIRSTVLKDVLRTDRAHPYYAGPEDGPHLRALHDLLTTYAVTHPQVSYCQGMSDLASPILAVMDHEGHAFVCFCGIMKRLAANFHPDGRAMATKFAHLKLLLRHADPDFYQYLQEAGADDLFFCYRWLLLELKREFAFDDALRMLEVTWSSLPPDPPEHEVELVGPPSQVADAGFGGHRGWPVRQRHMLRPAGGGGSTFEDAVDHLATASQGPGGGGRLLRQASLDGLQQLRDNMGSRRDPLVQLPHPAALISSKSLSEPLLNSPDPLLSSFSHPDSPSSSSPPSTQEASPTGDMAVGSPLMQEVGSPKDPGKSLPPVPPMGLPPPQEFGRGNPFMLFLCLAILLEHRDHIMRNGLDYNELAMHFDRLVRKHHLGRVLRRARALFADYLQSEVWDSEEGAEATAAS
UniProt Q6ZT07: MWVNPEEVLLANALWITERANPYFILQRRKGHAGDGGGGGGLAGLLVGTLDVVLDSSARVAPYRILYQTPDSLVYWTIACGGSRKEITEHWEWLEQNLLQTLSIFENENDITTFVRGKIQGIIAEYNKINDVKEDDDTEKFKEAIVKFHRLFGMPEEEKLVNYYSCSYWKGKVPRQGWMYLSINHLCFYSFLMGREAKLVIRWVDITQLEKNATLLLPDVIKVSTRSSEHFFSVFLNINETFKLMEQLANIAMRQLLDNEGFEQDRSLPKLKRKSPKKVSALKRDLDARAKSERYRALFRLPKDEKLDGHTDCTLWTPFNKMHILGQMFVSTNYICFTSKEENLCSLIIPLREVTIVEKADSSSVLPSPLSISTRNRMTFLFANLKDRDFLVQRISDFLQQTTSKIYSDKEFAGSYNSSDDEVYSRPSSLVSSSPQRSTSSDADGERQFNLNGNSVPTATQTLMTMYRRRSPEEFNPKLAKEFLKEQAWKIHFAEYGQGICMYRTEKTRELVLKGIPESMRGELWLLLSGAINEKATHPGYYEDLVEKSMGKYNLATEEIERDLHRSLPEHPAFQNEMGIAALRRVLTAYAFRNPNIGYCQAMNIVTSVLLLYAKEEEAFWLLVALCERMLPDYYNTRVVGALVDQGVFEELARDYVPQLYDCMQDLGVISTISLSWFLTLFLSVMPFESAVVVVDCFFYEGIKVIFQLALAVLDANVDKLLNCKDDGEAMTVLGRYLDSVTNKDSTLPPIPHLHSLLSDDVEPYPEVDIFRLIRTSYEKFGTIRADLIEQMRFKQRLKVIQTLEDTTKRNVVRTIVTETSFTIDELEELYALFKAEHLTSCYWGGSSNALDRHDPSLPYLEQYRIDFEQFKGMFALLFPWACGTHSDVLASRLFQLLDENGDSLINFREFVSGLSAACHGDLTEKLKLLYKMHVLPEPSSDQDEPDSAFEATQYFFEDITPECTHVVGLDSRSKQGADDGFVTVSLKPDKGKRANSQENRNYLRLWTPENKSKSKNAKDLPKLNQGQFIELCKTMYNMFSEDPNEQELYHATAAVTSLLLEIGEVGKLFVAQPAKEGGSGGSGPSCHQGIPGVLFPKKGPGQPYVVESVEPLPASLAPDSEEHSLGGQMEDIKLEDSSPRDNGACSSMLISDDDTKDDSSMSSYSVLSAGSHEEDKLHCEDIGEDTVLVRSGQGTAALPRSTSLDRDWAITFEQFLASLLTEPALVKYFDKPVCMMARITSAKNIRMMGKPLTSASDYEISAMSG
UniProt Q8N9U0: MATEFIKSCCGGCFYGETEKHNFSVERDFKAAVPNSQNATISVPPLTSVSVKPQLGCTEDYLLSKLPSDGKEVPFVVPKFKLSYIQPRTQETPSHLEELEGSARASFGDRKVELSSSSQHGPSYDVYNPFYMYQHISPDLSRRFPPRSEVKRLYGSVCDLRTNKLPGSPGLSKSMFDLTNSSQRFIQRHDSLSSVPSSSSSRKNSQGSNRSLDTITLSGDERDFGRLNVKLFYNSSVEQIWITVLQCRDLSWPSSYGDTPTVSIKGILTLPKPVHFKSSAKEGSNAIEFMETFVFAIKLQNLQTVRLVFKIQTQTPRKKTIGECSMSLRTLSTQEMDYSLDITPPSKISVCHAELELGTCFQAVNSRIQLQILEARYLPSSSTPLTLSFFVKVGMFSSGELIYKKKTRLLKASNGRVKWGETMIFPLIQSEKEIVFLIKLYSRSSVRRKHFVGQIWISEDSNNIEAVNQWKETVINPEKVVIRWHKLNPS

compound: COC(=O)N[C@@H](C)CNc1nccc(-c2cn(C(C)C)nc2-c2cc(Cl)cc(NS(C)(=O)=O)c2F)n1 [encorafenib]; experiment: log2 fold change, soluble protein after heating vs DMSO (PISA); higher = thermal stabilisation; K562 cells, 10 uM, 30 min; active = over 0.2 and 3.5 SD of the protein, either way, in both replicates (recomputed)
In short: (§1)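 Aliquots of K562 cells (2×10^6 cells/mL) treated with 10 μM compound for 30 min were heated for 3 min over 48°C-58°C. After pooling and extraction in PBS with 0.5% NP-40 at 4°C, soluble protein from a 21,000xg, 90 min spin was quantified by TMTpro 16plex LC-MS/MS with channel sums equalised. Thermal stability is expressed against control samples, from duplicates, as a log2 fold change.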

log2 fold change, inactive:
TFDP1 (UniProt Q14186) 0, TBP (UniProt P20226) 0.019, TFDP2 (UniProt Q14188) -0.179, TFIP11 (UniProt Q9UBB9) -0.214, TBC1D20 isoform 3 (UniProt Q96BZ9) 0.074, TCOF1 isoform 6 (UniProt Q13428) 0.162, TLE3 (UniProt Q04726) -0.182, TCOF1 isoform 3 (UniProt Q13428) -0.084, TCP11L1 (UniProt Q9NUJ3) 0.115, TEX10 (UniProt Q9NXF1) -0.513, TCEAL4 isoform 2 (UniProt Q96EI5) 0.248, TCAF2 (UniProt A6NFQ2) 0.263, TBC1D2 (UniProt Q9BYX2) 0.122, TCF3 isoform 2 (UniProt P15923) 0.129, TET2 (UniProt Q6N021) -0.015, TFAP4 (UniProt Q01664) 0.107, TDRD7 (UniProt Q8NHU6) 0.017

compound: COC(=O)[C@H](CCSC)NC(=O)C1=C(C=C(C=C1)NC[C@H](CS)N)C2=CC=CC=C2; experiment: as above
In short: as §1

log2 fold change, inactive:
TCF25 (UniProt Q9BQ70) -0.183, TFDP1 (UniProt Q14186) -0.088, TBP (UniProt P20226) -0.071, TBC1D14 (UniProt Q9P2M4) 0.052, TBC1D20 isoform 3 (UniProt Q96BZ9) -0.068, TCOF1 isoform 6 (UniProt Q13428) -0.053, TDRD3 isoform 3 (UniProt Q9H7E2) -0.044, TEX30 (UniProt Q5JUR7) 0.017, TBC1D25 (UniProt Q3MII6) -0.094, TCEAL4 isoform 2 (UniProt Q96EI5) -0.084, TBC1D9 (UniProt Q6ZT07) -0.049, TCEAL1 isoform 2 (UniProt Q15170) 0.116, TCF3 isoform 2 (UniProt P15923) 0.139, TC2N (UniProt Q8N9U0) -0.096, TFAP4 (UniProt Q01664) -0.057, TIFA (UniProt Q96CG3) -0.099, TDRD7 (UniProt Q8NHU6) 0.025
